No constants are given. Whether binding was seen depends on the method and setting. Binding seen in cells or lysates may run through a third protein. A result given as binding can be weak or reduced; the word gives no strength. Sequences can lack the tags named with a protein.
Target: T1, His-tagged translocation-associated membrane protein 2 (TRAM2) (UniProt Q924Z5)
T1 sequence: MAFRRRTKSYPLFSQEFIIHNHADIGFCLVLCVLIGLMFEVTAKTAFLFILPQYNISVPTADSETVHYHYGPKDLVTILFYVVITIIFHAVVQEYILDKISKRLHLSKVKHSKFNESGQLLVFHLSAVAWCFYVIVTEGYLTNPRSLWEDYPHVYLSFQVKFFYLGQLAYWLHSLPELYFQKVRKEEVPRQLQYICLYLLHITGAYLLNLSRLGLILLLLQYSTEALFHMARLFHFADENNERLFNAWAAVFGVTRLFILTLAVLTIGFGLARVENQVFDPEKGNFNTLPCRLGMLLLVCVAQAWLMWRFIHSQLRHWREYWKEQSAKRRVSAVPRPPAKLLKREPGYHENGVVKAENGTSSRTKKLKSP
Test: co-IP; His antibody precipitates N-terminally His-tagged TRAM2 from transfected BMSCs; blots for endogenous SERCA2b and Col1; cells treated with Ion, TG, FT011 or FT011 plus Lv-Col1

Amino acid sequences for entries named in this document (tags omitted). A change or cut given only in a name is not applied to a line headed by its entry.
UniProt P11087: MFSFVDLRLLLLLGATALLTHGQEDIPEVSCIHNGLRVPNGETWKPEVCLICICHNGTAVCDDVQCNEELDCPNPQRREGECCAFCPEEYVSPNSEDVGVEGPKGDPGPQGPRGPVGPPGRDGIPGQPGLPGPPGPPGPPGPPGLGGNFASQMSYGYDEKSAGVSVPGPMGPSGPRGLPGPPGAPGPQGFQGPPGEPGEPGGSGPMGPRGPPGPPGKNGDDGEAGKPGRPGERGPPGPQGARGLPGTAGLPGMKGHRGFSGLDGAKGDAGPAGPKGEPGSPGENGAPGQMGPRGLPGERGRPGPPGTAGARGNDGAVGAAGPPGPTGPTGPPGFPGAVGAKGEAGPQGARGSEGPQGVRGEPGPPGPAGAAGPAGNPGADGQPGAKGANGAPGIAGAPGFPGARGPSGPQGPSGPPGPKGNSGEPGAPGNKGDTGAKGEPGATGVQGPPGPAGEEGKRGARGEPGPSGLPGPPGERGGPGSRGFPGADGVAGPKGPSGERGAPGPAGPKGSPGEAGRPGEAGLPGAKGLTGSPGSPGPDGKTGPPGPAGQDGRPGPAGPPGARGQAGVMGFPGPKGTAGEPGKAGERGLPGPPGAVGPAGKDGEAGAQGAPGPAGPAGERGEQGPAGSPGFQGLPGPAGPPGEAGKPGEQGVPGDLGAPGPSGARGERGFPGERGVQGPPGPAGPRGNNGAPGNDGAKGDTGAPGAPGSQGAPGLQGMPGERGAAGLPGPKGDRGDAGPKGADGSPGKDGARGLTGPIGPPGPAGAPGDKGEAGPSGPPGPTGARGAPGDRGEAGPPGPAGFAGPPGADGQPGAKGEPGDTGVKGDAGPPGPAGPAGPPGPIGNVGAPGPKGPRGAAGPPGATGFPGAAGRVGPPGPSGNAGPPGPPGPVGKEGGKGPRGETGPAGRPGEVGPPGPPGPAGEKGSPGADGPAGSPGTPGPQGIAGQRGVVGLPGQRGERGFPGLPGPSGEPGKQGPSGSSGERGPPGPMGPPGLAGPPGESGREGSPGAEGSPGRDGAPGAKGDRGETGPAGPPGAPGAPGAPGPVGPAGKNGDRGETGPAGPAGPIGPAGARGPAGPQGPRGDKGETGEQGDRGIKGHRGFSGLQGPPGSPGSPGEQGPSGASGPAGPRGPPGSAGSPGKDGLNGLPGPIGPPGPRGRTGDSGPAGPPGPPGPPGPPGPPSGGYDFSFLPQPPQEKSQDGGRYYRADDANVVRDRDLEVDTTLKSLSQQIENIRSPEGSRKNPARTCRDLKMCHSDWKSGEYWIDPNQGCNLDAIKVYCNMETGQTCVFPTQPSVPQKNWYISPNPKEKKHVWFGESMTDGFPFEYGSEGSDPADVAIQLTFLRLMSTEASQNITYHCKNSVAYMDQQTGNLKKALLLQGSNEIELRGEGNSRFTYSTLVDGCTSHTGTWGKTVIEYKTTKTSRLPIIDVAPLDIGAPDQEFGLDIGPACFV

binding: binds
Substance: collagen 1 (Col1) (from UniProt P11087)

Source: publication PMC8336496
